From the supplement of paper PMC10735217
Counter-ions that a name gives are not always drawn. This is one part of the list. Single values are uncertain here, since repeats match poorly.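 In a drug-repurposing library screen, luminescence reads luciferase driven by eight TEAD-binding elements, stably integrated into human kidney-derived cells. Compounds scoring over five robust Z scores above the plate mean are called hits.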

Test system: HEK293A TEAD-LUC reporter
Experiment: TEAD-luciferase reporter activity (YAP activation), robust Z score vs plate; higher = stronger YAP/TEAD activation
Conditions: 24 h

Structure (SMILES)	TEAD-luciferase reporter activity (compound concentration: 200 nM)	TEAD-luciferase reporter activity (compound concentration: 2 uM)	TEAD-luciferase reporter activity (compound concentration: 10 uM)
CCC(c1ccccc1)N1Cc2cc3c(cc2C[C@H]1C(=O)NC(Cc1ccc(C#N)cc1)C(=O)O)N(C)C(=O)[C@@H](c1ccc(OCc2ccc(Cl)c(Cl)c2)cc1)O3 (stereo partly specified) [analog of TTP-054]	inactive: 0.118	inactive: -0.795	inactive: 4.94
CC(C)[C@@H]1CC[C@@H](C)C[C@H]1O [Menthol]	inactive: -1.2	inactive: -1.14	inactive: 0.221
CCCCCN(C)CCC(O)(P(=O)(O)O)P(=O)(O)O [ibandronate, Lanco Biosciences]	inactive: -0.605	–	inactive: 0.147
CC(C)C[C@@H](NC(=O)[C@@H](Cc1ccccc1)NC(=O)[C@H](N)Cc1ccccc1)C(=O)N[C@H](CCCCN)C(=O)N1CCC(N)(C(=O)O)CC1	inactive: 0.147	inactive: -0.714	inactive: 0.381
C[N+](C)(C)CCCCC[N+](C)(C)C	inactive: -0.96	inactive: -0.835	inactive: -1.05
COc1cc(NS(=O)(=O)c2ccc(N)cc2)ncn1	inactive: -0.377	inactive: 0.809	inactive: -0.52
O=C1CCC(N2C(=O)c3ccccc3C2=O)C(=O)N1 (stereo unspecified) [Thalidomide50-35-1]	inactive: -0.0159	–	inactive: -1.65
O=C1CCC(N2C(=O)c3ccccc3C2=O)C(=O)N1 (stereo unspecified) [thalidomide, Andrulis]	–	inactive: -0.287	–
Cc1ccc(Cl)cc1N1CCN(CCCNC(=O)c2ccc3c(c2)NC(=O)C2CCCCN32)CC1 (stereo unspecified)	inactive: 0.747	inactive: -0.348	inactive: 0.821
Nc1c(CC(=O)O)cccc1C(=O)c1ccccc1 [amfenac sodium]	inactive: -1.67	inactive: -1.12	inactive: 1.64
CN(C)Cc1c(C(=O)NCCOc2ccc(C(=O)NO)cc2)oc2ccccc12 [abexinostat]	–	active: 9.66	–
CN(C)Cc1c(C(=O)NCCOc2ccc(C(=O)NO)cc2)oc2ccccc12	active: 13.9	–	active: 38.3
CCOC(=O)OC(C)OC(=O)[C@@H]1N2C(=O)[C@@H](/N=C/N3CCCCCC3)[C@H]2SC1(C)C (stereo partly specified)	inactive: -1.12	inactive: 0.41	inactive: 2.36
CNCCCC12CCC(c3ccccc31)c1ccccc12 [Maprotiline hydrochloride]	inactive: 1.39	inactive: -0.484	inactive: -0.189
CCC(=C(c1ccccc1)c1ccc(/C=C/C(=O)O)cc1)c1ccccc1	inactive: -0.814	inactive: 1.13	inactive: 0.494
CC(C)OC(=O)C(C)(C)Oc1ccc(C(=O)c2ccc(Cl)cc2)cc1	inactive: 1.52	–	inactive: 0.695
CC(C)OC(=O)C(C)(C)Oc1ccc(C(=O)c2ccc(Cl)cc2)cc1 [fenofibrate (delayed release)]	–	inactive: -1.67	–
CCCCCCCCCCCCOCCOCCOCCOCCOCCOCCOCCOCCOCCO [polidocanol, BTG]	inactive: -0.56	inactive: -1.44	inactive: -1.47
Cc1cc(-c2cc(O)ccc2Cl)cc2nnc(Nc3ccc(OCCN4CCCC4)cc3)nc12	inactive: 0.0213	inactive: 0.637	inactive: 0.821
O=S1(=O)c2cccc3cccc(c23)N1CCCN1CCN(c2ccc(F)cc2)CC1 [Fananserin]	inactive: -1.27	inactive: -1.06	inactive: 4.96

Structure (SMILES)	TEAD-luciferase reporter activity (compound concentration: 200 nM)	TEAD-luciferase reporter activity (compound concentration: 2 uM)	TEAD-luciferase reporter activity (compound concentration: 10 uM)
O=C1CCCS(=O)(=O)c2ccc(Cl)cc21	inactive: 0.353	inactive: 0.176	inactive: 0.444
NC(=O)c1ccc(Oc2ccc(CN3CCCC3)cc2F)nc1	inactive: 0.743	inactive: -1.77	inactive: 0.983
CC12CC(=O)C3C(CCC4CC(O)CCC43C)C1CCC2C(=O)CO (stereo unspecified)	inactive: -0.652	inactive: 2.75	inactive: 1.13
CC[C@@]1(O)C(=O)OCc2c1cc1n(c2=O)Cc2cc3c([N+](=O)[O-])cccc3nc2-1 [rubitecan]	inactive: -2.03	inactive: -1.48	inactive: -2.85
CC1(C)CC(Oc2ccc(-c3ccc(-c4cn[nH]c4)cc3O)nn2)CC(C)(C)N1	inactive: -0.17	inactive: -1.05	inactive: -1.25
C=C[C@]1(C)C[C@@H](OC(=O)NC(=O)C23CCN(CC2)CC3)[C@]2(C)C(C)CC[C@]3(CCC(=O)C32)[C@@H](C)[C@@H]1O (stereo partly specified)	inactive: 2.03	inactive: -0.571	inactive: -1.76
O[C@@H](c1cc(C(F)(F)F)nc2c(C(F)(F)F)cccc12)[C@H]1CCCCN1	inactive: 1.9	–	inactive: 0.0147
O[C@@H](c1cc(C(F)(F)F)nc2c(C(F)(F)F)cccc12)[C@H]1CCCCN1 [(+)-mefloquine]	–	inactive: -0.0587	–
Cc1ccc(S(=O)(=O)NC(=O)NN2CC3CCCC3C2)cc1 (stereo unspecified) [gliclazide]	inactive: -0.646	inactive: -1.35	inactive: 0.494
N=C(N)c1ccc(N2C[C@@H](CN3CCN(CC(=O)O)CC3)OC2=O)cc1	inactive: -0.315	inactive: -2.08	inactive: 1.56
CC(=O)S[C@@H]1CC2=CC(=O)CC[C@]2(C)[C@H]2CC[C@@]3(C)[C@@H](CC[C@@]34CCC(=O)O4)[C@H]12 [Spironolactone]	inactive: -1.33	–	inactive: 2.93
CC(=O)S[C@@H]1CC2=CC(=O)CC[C@]2(C)[C@H]2CC[C@@]3(C)[C@@H](CC[C@@]34CCC(=O)O4)[C@H]12 [spironolactone]	–	inactive: 0.223	–
CCN1CCN(c2cc3c(cc2F)c(=O)c(C(=O)O)cn3C2CC2)CC1	inactive: -1.42	–	inactive: -1.13
CCN1CCN(c2cc3c(cc2F)c(=O)c(C(=O)O)cn3C2CC2)CC1 [Enrofloxacin]	–	inactive: -0.739	–
Oc1cccc(O)c1	inactive: -0.653	inactive: -0.59	inactive: -0.419
Oc1cccc(O)c1 [Resorcinol]	–	inactive: -0.538	–
CCc1ccc(C(=O)COc2ccc(Cc3sc(O)nc3O)cc2)nc1	inactive: -0.171	inactive: -1.08	inactive: 1.19
Cc1nc(-c2ccc(C(F)(F)F)cc2)sc1C(=O)NCc1ccc(OC(C)(C)C(=O)O)cc1	inactive: -2.59	inactive: -1.09	inactive: 2.94
CC(C)(CO)[C@@H](O)C(=O)NCCCO [dexpanthenol]	–	inactive: 0.944	–
CC(C)(CO)[C@@H](O)C(=O)NCCCO	inactive: -0.772	–	inactive: -1.05

Structure (SMILES)	TEAD-luciferase reporter activity (compound concentration: 200 nM)	TEAD-luciferase reporter activity (compound concentration: 2 uM)	TEAD-luciferase reporter activity (compound concentration: 10 uM)
CC(C)N1CC(O)C2=C/C(=N/NC(N)=O)C(=O)C=C21 (stereo unspecified) [iprazochrome]	inactive: -1.25	inactive: 0.542	inactive: 3.29
C[C@]12C=CC(=O)C=C1CC[C@@H]1[C@@H]2[C@@H](O)C[C@@]2(C)[C@H]1CC[C@]2(O)C(=O)CO [Prednisolone]	inactive: -0.000567	inactive: 3.02	inactive: 2.41
O=C1c2ccccc2C(=O)c2sc(-c3ccco3)nc21	inactive: 0.952	inactive: -1.17	inactive: -0.8
CS(=O)(=O)c1ccc(C2=C(c3ccccc3)C(=O)OC2)cc1	inactive: -0.321	–	inactive: -0.401
CS(=O)(=O)c1ccc(C2=C(c3ccccc3)C(=O)OC2)cc1 [rofecoxib]	–	inactive: -0.579	–
COC(=O)C1C(=O)C=C(Nc2ccc(Cl)cc2)CC1C (stereo unspecified)	inactive: -0.468	inactive: 0.407	inactive: 1.91
Cc1cc(C(=O)O)ccc1COc1cc2c(cc1N(CC(C)C)S(=O)(=O)c1nccs1)CCC2	inactive: -1.93	inactive: -1.13	inactive: -1.61
IC(I)I	inactive: -1.59	inactive: -0.717	inactive: -0.918
CC1=N[C@H](C(=O)O)CCN1 [Ectoine]	inactive: -0.736	–	inactive: 2.55
CCC1(CC(=O)O)OCCc2c1[nH]c1ccccc21 (stereo unspecified)	inactive: -1.45	inactive: -0.91	inactive: -1.28
O=NN(CCCl)C(=O)NCCSSCCNC(=O)N(CCCl)N=O [ditiomustine]	inactive: -0.192	inactive: -0.233	active: 8.79
c1ccc(C(CCNc2ccncc2)c2ccccc2)cc1 [milverine]	inactive: -1.55	inactive: 0.701	inactive: 0.891
O=C(OCC(O)CO)c1ccccc1Nc1ccnc2cc(Cl)ccc12 (stereo unspecified) [glafenine, Sopar]	inactive: -0.87	–	inactive: -1.56
O=C(OCC(O)CO)c1ccccc1Nc1ccnc2cc(Cl)ccc12 (stereo unspecified) [glafenine]	–	inactive: -0.689	–
COc1cc2c(cc1OC)CN(CCc1ccc(NC(=O)c3cccc(/C=c4\[nH]c(=O)/c(=C/c5ccccc5)n(C)c4=O)c3)cc1)CC2	inactive: -2.12	inactive: -1.44	inactive: 2.64
CN(C)/N=N/c1ccc(C(=O)O)cc1	inactive: 2.01	inactive: -0.134	inactive: -0.598
COc1ccc(-c2nc(-c3cc(C(F)(F)F)cc(C(F)(F)F)c3)n(Cc3ccc(C(N)=O)cc3)c2-c2ccc(OC)cc2)cc1 [apoptozole]	inactive: -0.878	inactive: 0.0105	inactive: -0.162
OCC(O)C(O)C(O)CO (stereo unspecified) [Xylitol]	inactive: -1.23	inactive: -1.82	inactive: -1.62
C[C@](N)(Cc1ccc(O)c(O)c1)C(=O)O [Methyldopa]	inactive: -0.377	inactive: -1.19	inactive: -0.898

Reformatted: results already given

| Structure (SMILES) | TEAD-luciferase reporter activity (compound concentration: 200 nM) | TEAD-luciferase reporter activity (compound concentration: 2 uM) | TEAD-luciferase reporter activity (compound concentration: 10 uM) |
| --- | --- | --- | --- |
| c1ccc(C(CCNc2ccncc2)c2ccccc2)cc1 [milverine] | inactive: -1.55 | inactive: 0.701 | inactive: 0.891 |
| O=C(OCC(O)CO)c1ccccc1Nc1ccnc2cc(Cl)ccc12 (stereo unspecified) [glafenine, Sopar] | inactive: -0.87 | – | inactive: -1.56 |
| O=C(OCC(O)CO)c1ccccc1Nc1ccnc2cc(Cl)ccc12 (stereo unspecified) [glafenine] | – | inactive: -0.689 | – |
